# From the supplement of paper PMC8728848
# The other results are listed elsewhere or left out.
# B1: CD23 (Homo sapiens) (protein)
# chain: MELQVSSGFVCNTCPEKWINFQRKCYYFGKGTKQWVHARYACDDMEGQLVSIHSPEEQDFLTKHASHTGSWIGLRNLDLKGEFIWVDGSHVDYSNWAPGEPTSRSQGEDCVMMRGSGRWNDAFCDRKLGAWVCDRLATCTPPASEGSAESMGPDSRPDPDGRLPTPSAPLHS
# Tests used:
# Assay in all cases: glycan array binding signal (z-score within array); higher = stronger binding
# Settings in all cases: glycan notation: IUPAC condensed, linker removed
# Glc(a1-4)Glc = biological target: Glc(a1-4)Glc
# How it was run: (§1)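 Glycan array binding is given as a within-array Z-score, which can be read as non-binding when negative. The arrays, 3228 of them, came from the Consortium for Functional Glycomics database and were retained only where the protein sequence was available. Z-scores were averaged across arrays of the same protein sequence at different concentrations or buffers and across linkers.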
# Glc(a1-6)Glc(a1-6)Glc = biological target: Glc(a1-6)Glc(a1-6)Glc
# How it was run: as §1
# Glc(b1-4)Glc = biological target: Glc(b1-4)Glc
# How it was run: as §1
# Glc(b1-6)Glc = biological target: Glc(b1-6)Glc
# How it was run: as §1
# GlcA(b1-3)Gal = biological target: GlcA(b1-3)Gal
# How it was run: as §1
# GlcA(b1-6)Gal = biological target: GlcA(b1-6)Gal
# How it was run: as §1
# [1] = biological target: GlcNAc(a1-3)Gal(b1-4)GlcNAc
# How it was run: as §1
# [2] = biological target: GlcNAc(a1-6)Gal(b1-4)GlcNAc
# How it was run: as §1
# [3] = biological target: GlcNAc(b1-2)Gal(b1-3)GalNAc
# How it was run: as §1
# [4] = biological target: GlcNAc(b1-2)Man(a1-3)[GlcNAc(b1-2)Man(a1-6)]Man(b1-4)GlcNAc(b1-4)GlcNAc
# How it was run: as §1
# GlcNAc(b1-3)Gal = biological target: GlcNAc(b1-3)Gal
# How it was run: as §1
# [5] = biological target: GlcNAc(b1-3)Gal(b1-3)GalNAc
# How it was run: as §1
# GlcNAc(b1-3)Gal(b1-4)Glc = biological target: GlcNAc(b1-3)Gal(b1-4)Glc
# How it was run: as §1
# [6] = biological target: GlcNAc(b1-3)Gal(b1-4)GlcNAc
# How it was run: as §1
# [7] = biological target: GlcNAc(b1-3)Gal(b1-4)GlcNAc(b1-3)Gal(b1-4)GlcNAc
# How it was run: as §1
# GlcNAc(b1-3)GalNAc = biological target: GlcNAc(b1-3)GalNAc
# How it was run: as §1
# [8] = biological target: GlcNAc(b1-3)[GlcNAc(b1-4)][GlcNAc(b1-6)]GlcNAc
# How it was run: as §1
# [9] = biological target: GlcNAc(b1-3)[GlcNAc(b1-6)]Gal(b1-4)GlcNAc
# How it was run: as §1
# [10] = biological target: GlcNAc(b1-3)[GlcNAc(b1-6)]GalNAc
# How it was run: as §1
# [11] = biological target: GlcNAc(b1-4)Gal(b1-4)GlcNAc
# How it was run: as §1
# [12] = biological target: GlcNAc(b1-4)GlcNAc(b1-4)GlcNAc
# How it was run: as §1
# [13] = biological target: GlcNAc(b1-4)GlcNAc(b1-4)GlcNAc(b1-4)GlcNAc(b1-4)GlcNAc
# How it was run: as §1
# [14] = biological target: GlcNAc(b1-4)GlcNAc(b1-4)GlcNAc(b1-4)GlcNAc(b1-4)GlcNAc(b1-4)GlcNAc
# How it was run: as §1
# [15] = biological target: GlcNAc(b1-4)[GlcNAc(b1-6)]GalNAc
# How it was run: as §1
# [16] = biological target: GlcNAc(b1-6)Gal(b1-4)GlcNAc
# How it was run: as §1
# GlcNAc(b1-6)GalNAc = biological target: GlcNAc(b1-6)GalNAc
# How it was run: as §1
# Kdn(a2-3)Gal(b1-3)GlcNAc = biological target: Kdn(a2-3)Gal(b1-3)GlcNAc
# How it was run: as §1
# Kdn(a2-3)Gal(b1-4)GlcNAc = biological target: Kdn(a2-3)Gal(b1-4)GlcNAc
# How it was run: as §1
# [17] = biological target: Man(a1-2)Man(a1-2)Man(a1-3)Man
# How it was run: as §1
# [18] = biological target: Man(a1-2)Man(a1-2)Man(a1-6)[Man(a1-3)]Man
# How it was run: as §1
# Man(a1-2)Man(a1-3)Man = biological target: Man(a1-2)Man(a1-3)Man
# How it was run: as §1
# [19] = biological target: Man(a1-2)Man(a1-3)[Man(a1-2)Man(a1-6)]Man
# How it was run: as §1
# [20] = biological target: Man(a1-2)Man(a1-3)[Man(a1-2)Man(a1-6)]Man(a1-6)[Man(a1-2)Man(a1-2)Man(a1-3)]Man(b1-4)GlcNAc(b1-4)GlcNAc
# How it was run: as §1
# [21] = biological target: Man(a1-2)Man(a1-3)[Man(a1-2)Man(a1-6)]Man(a1-6)[Man(a1-3)[Man(a1-6)]Man(a1-6)]Man(b1-4)GlcNAc(b1-4)GlcNAc
# How it was run: as §1
# [22] = biological target: Man(a1-2)Man(a1-3)[Man(a1-6)]Man(a1-6)[Man(a1-2)Man(a1-3)]Man(b1-4)GlcNAc(b1-4)GlcNAc
# How it was run: as §1
# [23] = biological target: Man(a1-2)Man(a1-6)[Man(a1-3)]Man(a1-6)[Man(a1-2)Man(a1-2)Man(a1-3)]Man(b1-4)GlcNAc(b1-4)GlcNAc
# How it was run: as §1
# Man(a1-3)[Man(a1-6)]Man = biological target: Man(a1-3)[Man(a1-6)]Man
# How it was run: as §1
# [24] = biological target: Man(a1-3)[Man(a1-6)]Man(a1-6)[Man(a1-3)]Man(b1-4)GlcNAc(b1-4)GlcNAc
# How it was run: as §1
binder,measurement,setting,value
B1,glycan array binding signal (z-score),Glc(a1-4)Glc,-0.129
same,glycan array binding signal (z-score),Glc(a1-6)Glc(a1-6)Glc,-0.606
same,glycan array binding signal (z-score),Glc(b1-4)Glc,-0.778
same,glycan array binding signal (z-score),Glc(b1-6)Glc,-0.392
same,glycan array binding signal (z-score),GlcA(b1-3)Gal,-0.353
same,glycan array binding signal (z-score),GlcA(b1-6)Gal,-0.165
same,glycan array binding signal (z-score),[1],-0.441
same,glycan array binding signal (z-score),[2],-0.329
same,glycan array binding signal (z-score),[3],0.682
same,glycan array binding signal (z-score),[4],-0.157
same,glycan array binding signal (z-score),GlcNAc(b1-3)Gal,-0.438
same,glycan array binding signal (z-score),[5],1.43
same,glycan array binding signal (z-score),GlcNAc(b1-3)Gal(b1-4)Glc,-0.494
same,glycan array binding signal (z-score),[6],-0.603
same,glycan array binding signal (z-score),[7],-0.545
same,glycan array binding signal (z-score),GlcNAc(b1-3)GalNAc,-0.037
same,glycan array binding signal (z-score),[8],0.272
same,glycan array binding signal (z-score),[9],-0.28
same,glycan array binding signal (z-score),[10],-0.473
same,glycan array binding signal (z-score),[11],-0.324
same,glycan array binding signal (z-score),[12],-0.139
same,glycan array binding signal (z-score),[13],-0.214
same,glycan array binding signal (z-score),[14],-0.781
same,glycan array binding signal (z-score),[15],-0.533
same,glycan array binding signal (z-score),[16],-0.37
same,glycan array binding signal (z-score),GlcNAc(b1-6)GalNAc,-0.067
same,glycan array binding signal (z-score),Kdn(a2-3)Gal(b1-3)GlcNAc,-0.186
same,glycan array binding signal (z-score),Kdn(a2-3)Gal(b1-4)GlcNAc,0.298
same,glycan array binding signal (z-score),[17],-0.2
same,glycan array binding signal (z-score),[18],-0.299
same,glycan array binding signal (z-score),Man(a1-2)Man(a1-3)Man,0.191
same,glycan array binding signal (z-score),[19],-0.146
same,glycan array binding signal (z-score),[20],-0.233
same,glycan array binding signal (z-score),[21],0.212
same,glycan array binding signal (z-score),[22],0.201
same,glycan array binding signal (z-score),[23],-0.425
same,glycan array binding signal (z-score),Man(a1-3)[Man(a1-6)]Man,0.253
same,glycan array binding signal (z-score),[24],0.18

# Quoted at random: 3 records from the list.
binder,measurement,setting,value
B1,glycan array binding signal (z-score),[22],0.201
same,glycan array binding signal (z-score),[17],-0.2
same,glycan array binding signal (z-score),[16],-0.37
